# Measured values reported in PubChem BioAssay AID504467 (National Center for Advancing Translational Sciences (NCATS), 2011).
# The campaign covered roughly 330,000 compounds. About 7,700 (2.3%) were called active. Inconclusive results, whose numbers are uncertain, are shown with a selection of clear calls. Calls follow the shape of the dose curve; as a rule, active = well fitted inhibition curve with a large enough effect; inconclusive = small, poorly fitted or top-dose-only effect, or effect the other way; inactive = flat fitted curve, though single readings scatter. Where the call is inconclusive, the potency comes from a doubtful curve fit.
# Assay: qHTS screen for small molecules that inhibit ELG1-dependent DNA repair in human embryonic kidney (HEK293T) cells expressing luciferase-tagged ELG1; also: nearly all actives have a fitted effect of over 55% in size
# Settings: HEK293T ELG1-luciferase reporter, luminescence, 16 h, DNA damage induced by 5-fluorouridine; activity change, negative = inhibition: at 46.1 µM (top of the series)
# Outline: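 Step one: seed 2,000 cells per well. Step two: pin-transfer compound or DMSO alongside 5-fluorouridine. Step three: incubate 16 hr, 37 °C, 5% CO2. Step four: add ONE-Glo, wait 30 min, read luminescence.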
# % is scaled to controls: 0 for no effect and ±100 for the full control effect; potency is read from the fitted curve at half-maximal effect.
SMILES,Potency,"activity change, negative = inhibition"
COc1ccc(C(=O)NC(=S)NCc2ccccc2)cc1OC,"inconclusive: 29.1 µM [inhibitor, single point]",
O=C(Nc1ccc2c(c1)CCC2)c1c(F)cccc1Cl,"inconclusive: 18.3 µM [activator, partial curve]",
CC(C)n1nnnc1SCC(=O)Nc1ccc2c(c1)OCO2,"inconclusive: 14.6 µM [activator, partial curve]",
COc1ccc2nc(/C=N/NC(=O)[C@H](C)NC(=O)OC(C)(C)C)ccc2c1,"inconclusive: 13 µM [activator, partial curve]",
CC1CCCC(C)N1CCCNC(=O)C1CCCN(c2ncnc3c2nc2n3CCCCC2)C1 (centres undefined),,inactive: 25.8%
O=C(CCSc1nc(-c2ccc3c(c2)OCO3)cc(C(F)(F)F)n1)NCc1ccco1,"inconclusive: 18.4 µM [inhibitor, partial curve]",
CC(=O)c1cccc(OCc2cc(C(=O)N(C)CCc3ccccn3)no2)c1,,inactive: -3.39%
CC(C)(C)c1ccc(-c2nnc(N)s2)cc1,"inconclusive: 9.2 µM [activator, partial curve]",
CCCC(C(=O)NCCC(C)C)N(Cc1ccc(OC)cc1)C(=O)c1snc(C(N)=O)c1N (centres undefined),"inconclusive: 16.4 µM [inhibitor, single point]",
Oc1oc(-c2ccccc2Br)nc1/C=N/c1ccccn1,"inconclusive: 14.6 µM [activator, partial curve]",
CCN(C(=O)CCc1nc(-c2ccc(OC)cc2)no1)c1cc(OC)ccc1OC,active: 16.4 µM,
COc1ccc(S(=O)(=O)Nc2cccc(C(C)=O)c2)cc1Br,"inconclusive: 32.6 µM [inhibitor, partial curve, poor fit]",
Cc1ccc2nc3c(c(Nc4cccc(O)c4)c2c1)CCC3,,inactive: -16.6%
Cc1ccc2oc(C(=O)NC3CCS(=O)(=O)C3)c(C)c2c1 (centres undefined),"inconclusive: 13 µM [activator, partial curve]",
COc1ccc2c(C)cc(SCC(=O)NC3CCCCC3)nc2c1,,inactive: -1.69%
O=[N+]([O-])c1ccc(OCC(O)CNC2CCCC2)cc1 (centres undefined),,inactive: 12%
COc1ccc(Nc2nc(NN)nc(Nc3ccc(OC)cc3)n2)cc1,"inconclusive: 20.6 µM [inhibitor, single point]",
COc1ccc(N2CC(C(=O)Nc3cccnc3)CC2=O)cc1 (centres undefined),,inactive: 10.9%
COc1ccccc1NS(=O)(=O)c1cc(NC(=O)c2[nH]c(C)c(C(C)=O)c2C)ccc1N1CCOCC1,"inconclusive: 6.51 µM [activator, partial curve]",
Cc1cccc(NCCC(=O)c2ccc(Br)cc2)c1,"inconclusive: 2.91 µM [activator, partial curve, poor fit]",
CCOc1ccc(-c2cc(C(=O)O)c3ccccc3n2)c(OCC)c1,"inconclusive: 16.4 µM [activator, single point]",
COc1ccc(N2CCN(C(CNC(=O)C(=O)NCc3ccncc3)c3ccco3)CC2)cc1 (centres undefined),"inconclusive: 18.3 µM [inhibitor, single point]",
CCCCCCn1c(NCC)nc2c1c(=O)[nH]c(=O)n2C,"inconclusive: 16.4 µM [activator, single point]",
CCC(C)(C)NC(=O)C(c1ccc(C)cc1)N(Cc1cccnc1)C(=O)c1csnn1 (centres undefined),,inactive: -4.59%
Fc1cccc(Nc2cc(-n3cccn3)ncn2)c1,,inactive: 2.55%

SMILES,Potency,"activity change, negative = inhibition"
O=C(c1ccccc1)N1CCN(C(=S)NCc2ccco2)CC1,"inconclusive: 20.6 µM [activator, partial curve, poor fit]",
CN(C)c1cc[n+](CC(=O)N2c3ccccc3Sc3ccccc32)cc1,"inconclusive: 10.3 µM [inhibitor, partial curve]",
CCCCC1CCC(C(=O)Nc2ccc(N3CCOCC3)cc2N2CCOCC2)CC1 (centres undefined),,inactive: 25%
O=C(COC(=O)c1cc(=O)[nH]c2ccccc12)NC(=O)c1ccccc1,,inactive: 3.9%
CC1CCc2c(sc3nc(CN4CCOCC4)nc(N4CCc5ccccc5C4)c23)C1 (centres undefined),"inconclusive: 9.2 µM [inhibitor, partial curve]",
COc1cc(/C=N/NC(=O)C(=O)NCc2ccco2)cc(Br)c1O,,inactive: 2.79%
COC(=O)c1[nH]c2ccccc2c1NC(=O)CN1CCC(C(N)=O)(N2CCCCC2)CC1,active: 6.51 µM,
Nc1cccc(CP(=O)(c2ccccc2)c2ccccc2)c1,"inconclusive: 25.1 µM [activator, single point]",
CCc1ccc(NC(=O)COc2coc(CN3CCN(c4ccccc4)CC3)cc2=O)cc1,,inactive: -2.88%
COc1ccc(CN2CCN(Cc3ccc4cc(F)ccc4n3)CC2CCO)c(C)c1C (centres undefined),"inconclusive: 23.1 µM [inhibitor, single point]",
O=C(NCc1ccncc1)C1CCCN1S(=O)(=O)c1ccc(Cl)cc1 (centres undefined),,inactive: -8.8%
CCOC(=O)CC1(NC(=O)c2cc(COc3cccc(OC)c3)on2)CCCCC1,"inconclusive: 18.3 µM [inhibitor, single point]",
O=C(COc1ccc(Cl)cc1Cl)Nc1ccccn1,"inconclusive: 0.0046 µM [activator, full curve, poor fit]",
COc1ccc(-c2nc(NC(=O)C3=NN(c4cccc(C)c4)C(=O)CC3)sc2C)cc1,"inconclusive: 23.1 µM [inhibitor, single point]",
COc1cc(-c2c(C#N)c(N)nc(SCc3ccncc3)c2C#N)cc(OC)c1OC,active: 11.2 µM,
CN(C(=O)c1cncc(Br)c1)C1C2CC3CC(C2)CC1C3 (centres undefined),,inactive: 7.75%
O=C(COc1ccccc1F)N1CCc2ccccc2C1,,inactive: 11.3%
CC(C)(C)C(=O)Nc1nnc(SCc2ccc(F)cc2)s1,"inconclusive: 23.1 µM [activator, single point]",
COc1ccc(OCc2cc(C(=O)N(C)C3CCOCC3)no2)c2ccccc12,"inconclusive: 13 µM [activator, partial curve]",
Cc1ccc(-c2n[nH]c(S(C)(=O)=O)c2C#N)cc1,"inconclusive: 32.6 µM [activator, single point]",
COC(=O)c1cc(NC(=O)CN2CCc3cc4c(cc3C2)OCCCO4)cc(C(=O)OC)c1,"inconclusive: 10.3 µM [inhibitor, partial curve, poor fit]",
CCOC(=O)N1CN(C(=O)OCC)CN(C(=O)OCC)C1,,inactive: 17.9%
O=c1cc(C(F)(F)F)[nH]c2ccccc12,"inconclusive: 16.4 µM [inhibitor, single point]",
Cc1ccccc1NC(=O)C(=Cc1ccc(C(=O)O)cc1)C(=O)Nc1ccccc1C,active: 11.6 µM,
COc1ccc(N2Cc3ccc(OC)c(OC)c3C2=O)cc1,"inconclusive: 7.3 µM [activator, partial curve]",

SMILES,Potency,"activity change, negative = inhibition"
COc1cccc(OC)c1OCCOc1ccc(C(=O)c2ccccc2)cc1,"inconclusive: 32.6 µM [inhibitor, partial curve, poor fit]",
Cc1cc(C)cc(OCC(=O)Nc2cccc(-c3nnc(-c4ccco4)o3)c2)c1,active: 20.6 µM,
COc1ccc(-n2c(SCC(=O)N3CCC(C(=O)O)CC3)nc3ccccc3c2=O)cc1OC,,inactive: 22.9%
Cn1cnnc1SCC(=O)N1N=C(c2ccc(Cl)cc2)CC1c1ccco1 (centres undefined),"inconclusive: 16.4 µM [inhibitor, single point]",
CC(=C/C(=O)O)/C=C/c1ccco1,,inconclusive: 20.3% [activator]
CS(=O)(=O)N1CCc2cc(C(=O)Nc3ccc(Br)cc3)ccc21,,inactive: -0.943%
CC1=C(C)CC2(SC1)C(=O)N(c1ccccc1)N=C2N (centres undefined),"inconclusive: 20.6 µM [activator, partial curve, poor fit]",
N#CC1=C(N)Oc2n[nH]c(-c3ccccc3)c2C1c1ccsc1 (centres undefined),"inconclusive: 1.3 µM [inhibitor, partial curve, poor fit]",
O=C(O)c1cccc(N/N=C/c2cccc3ccccc23)c1,"inconclusive: 0.0651 µM [activator, full curve, poor fit]",
Cc1ccc(NC(=O)CN(C)C(=O)c2ccc(C(F)(F)F)cc2)cc1,,inactive: 13.3%
O=C(CCc1nnc(Cc2cccc(C(F)(F)F)c2)o1)NCC(F)(F)F,,inactive: 21.4%
O=C(NNc1c2ccccc2nc2ccccc12)c1cccc(O)c1,active: 14.6 µM,
O=C(COC(=O)c1cccs1)Nc1ccccc1[N+](=O)[O-],,inactive: 8.87%
N#Cc1nc(-c2ccccc2F)oc1NCc1ccccc1,,inactive: 13%
COc1ccc(Cc2nc(-c3ccncc3)no2)cc1,"inconclusive: 14.6 µM [activator, partial curve]",
CCOc1ccc(/C=N/N(C)c2ccccc2)cc1OC,"inconclusive: 6.51 µM [activator, partial curve]",
Cc1cccc(COc2ccccc2C(=O)N(C)CC(=O)Nc2cccc(F)c2)c1,"inconclusive: 18.3 µM [inhibitor, single point]",
CC(=O)Nc1ccc(NC(=O)CC(NC(=O)c2ccccc2)c2ccccc2)cc1 (centres undefined),,inactive: 2.17%
Nc1cc(Cl)ccc1C(=O)OCC(=O)NCC1CCCO1 (centres undefined),"inconclusive: 20.6 µM [activator, partial curve, poor fit]",
COc1ccc(NC(=S)NNC(=O)c2nnn(-c3ccccc3)c2C)cc1,,inactive: -2.91%
CC(=O)N(/N=C1\Sc2ccccc2C1=O)c1cccc(C)c1,"inconclusive: 8.2 µM [activator, partial curve]",
CCCCCCCC(=O)Oc1ccc(C(=O)Nc2cc(C)on2)cc1,"inconclusive: 23.1 µM [activator, partial curve]",
COc1cc(C(=O)N/N=C/c2ccc(OC(=O)c3ccccc3Cl)cc2)ccc1O,,inactive: 1.12%
CCc1ccc2c(c1)/C(=N/OC)C(=O)N2,,inactive: 18.9%

# Quoted from the listing:
# In Potency, COc1ccc(OCc2cc(C(=O)N(C)C3CCOCC3)no2)c2ccccc12 has inconclusive: 13 µM [activator, partial curve]
# In activity change, negative = inhibition, CC(=O)c1cccc(OCc2cc(C(=O)N(C)CCc3ccccn3)no2)c1 has inactive: -3.39%
